From the supplement of paper PMC12889115 come the findings set out here.

The assay relates to Salmonella enterica serovar Typhimurium SL1344. As to the kind of experiment: bacterial growth OD600 after 18 h with compound and polymyxin B; higher = more bacterial growth (less inhibition). As to conditions: 50 µM, Mueller-Hinton broth.

This is one part of the list. Values are raw readings; no control value is given beside them.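 Primary screen: polymyxin B was added at a level permeabilizing Salmonella outer membranes while sparing inner membranes. DMSO wells, both with and without polymyxin B, established maximum growth. Plate-to-plate variation meant each plate was ranked on its own, and the lowest-OD600 compounds were selected as hits.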

Turning to `CC(C)N1CCC(N2CCCC2C(=O)Nc2cccc(-n3cccn3)c2)CC1` (stereo not drawn), the “bacterial growth OD600” value (polymyxin B 1 µg/mL) came to 1.01.

`COCCN1C(=O)CC(CC(=O)N2CCCC(c3ccccc3)CC2)(c2cccc(OC)c2)C1=O` (stereo not drawn): the “bacterial growth OD600” value (polymyxin B 0.75 µg/mL) was 0.01.

In the case of `COc1ccc(CNC(=O)c2cnn(-c3nccc(-c4ccccc4OC)n3)c2C2CC2)cc1`, the “bacterial growth OD600” value (polymyxin B 0.75 µg/mL) came to 0.703.

On to `Cc1ccccc1CC(C1CCN(C(=O)c2ccc(Cl)cc2)CC1)N(C)C(=O)Cn1cccn1` (stereo not drawn), for which, where the note is “polymyxin B 0.75 µg/mL”, the “bacterial growth OD600” value was 0.836.

As to `CC(=O)c1ccccc1-c1ccc2c(c1)CC(CNC(=O)c1ccc(C)cc1C)O2` (stereo not drawn), the “bacterial growth OD600” value (polymyxin B 0.75 µg/mL) was determined as 0.003.

Regarding `COc1cccc(CNC2COc3ccccc3C2)c1OC` (stereo not drawn), under “polymyxin B 0.75 µg/mL”, the “bacterial growth OD600” value was 0.765.

With `COc1cccc(-c2n[nH]c3c2CN(Cc2ccoc2)CC3)c1`, the “bacterial growth OD600” value (polymyxin B 0.75 µg/mL) amounted to 0.768.

On to `COc1cc(C)ccc1OCc1cc(C(=O)NC(c2cccnc2)C(F)(F)F)no1` (stereo not drawn), for which the “bacterial growth OD600” value (polymyxin B 1 µg/mL) worked out at 1.33.

In the case of `COCc1ccc(CN2CCCC(CCC(=O)Nc3ccc(OC)c(Cl)c3)C2)o1` (stereo not drawn), the “bacterial growth OD600” value (polymyxin B 1 µg/mL) was found to be 1.07.

As for `COCC(=O)Nc1cc(C(=O)NCCCc2cccnc2)cc2nc(-c3ccccc3)n(C)c12`, the “bacterial growth OD600” value (polymyxin B 0.75 µg/mL) stood at 0.862.

On to `O=C(NCc1cccnc1)C1CCN(C2CCN(Cc3c(F)ccc(F)c3F)CC2)CC1`, for which the “bacterial growth OD600” value (polymyxin B 1 µg/mL) was 0.369.

For `CCn1ccnc1CN1CCCC(CNC(=O)c2cccc3ccccc23)C1` (stereo not drawn), under “polymyxin B 1 µg/mL”, the “bacterial growth OD600” value worked out at 0.771.

Consider `COc1ccc(CC2=NOC(CNC(=O)c3cc(F)cc(F)c3)C2)cc1` (stereo not drawn), for which, under “polymyxin B 0.75 µg/mL”, the “bacterial growth OD600” value stood at 0.803.

Regarding `OCC1(Cc2ccccc2F)CCCN(Cc2cccc3ccccc23)C1` (stereo not drawn), the “bacterial growth OD600” value (polymyxin B 0.75 µg/mL) was -0.002.

For `O=C(NCC1CCC2(CCN(Cc3ccccc3)CC2)O1)/C(F)=C/c1ccccc1` (stereo not drawn), the “bacterial growth OD600” value (polymyxin B 0.75 µg/mL) came to 0.737.

Take `COc1ccc(C(=O)N2CCCC(C(=O)c3ccc(C(F)(F)F)cc3)C2)o1` (stereo not drawn): the “bacterial growth OD600” value (polymyxin B 1 µg/mL) turned out to be 0.683.

As to `CCOC(=O)C1(CCCc2ccccc2)CCN(C(=O)c2ocnc2C)CC1`, the “bacterial growth OD600” value (polymyxin B 1 µg/mL) stood at 0.697.

For the compound `CCc1ccc(-c2cn3c(C(=O)N(C)Cc4nccn4C)csc3n2)cc1`, the “bacterial growth OD600” value (polymyxin B 0.75 µg/mL) is 0.606.

`COC(=O)CCC(=O)N1CCC(Oc2cccc(C(=O)NCc3cccnc3)c2)CC1`: the “bacterial growth OD600” value (polymyxin B 1 µg/mL) was 0.925.

Consider `CC1CCCN(c2ccc(C(=O)N3CCCN(c4ncccn4)CC3)cn2)C1` (stereo not drawn), for which the “bacterial growth OD600” value (polymyxin B 0.75 µg/mL) came out at 0.957.

For `CN(C)c1ncc2c(n1)CCCC2NC(=O)c1cc2cc(F)ccc2[nH]1` (stereo not drawn), the “bacterial growth OD600” value (polymyxin B 0.75 µg/mL) was determined as 0.014.

In the case of `Cc1ccc(C)c(CN2CCCC(CO)(Cc3ccccc3F)C2)c1` (stereo not drawn), the “bacterial growth OD600” value (polymyxin B 1 µg/mL) came to 0.588.

On to `C=CCNC(=O)NC1CC(=O)N(Cc2ccccc2C(F)(F)F)C1` (stereo not drawn), for which the “bacterial growth OD600” value (polymyxin B 1 µg/mL) came out at 0.809.

As to `Cc1nc(CNC(=O)c2cc(COc3cccc(F)c3)[nH]n2)cs1`, the “bacterial growth OD600” value (polymyxin B 0.75 µg/mL) stood at 0.95.

On to `COc1cccc(CCC2CCCN(C(=O)c3ccoc3)C2)c1` (stereo not drawn), for which the “bacterial growth OD600” value (polymyxin B 0.75 µg/mL) was determined as 0.003.

For the compound `COc1ccc(CN2Cc3cc(C)ccc3OC(c3ccsc3)C2)cc1O` (stereo not drawn), the “bacterial growth OD600” value (polymyxin B 0.75 µg/mL) turned out to be 0.018.

Take `CCCCn1c(CN2CCCC2)cnc1S(=O)(=O)CCCC(C)C`: where the note is “polymyxin B 0.75 µg/mL”, the “bacterial growth OD600” value was determined as 0.542.

For `COC(=O)c1ccc(-c2noc(CN3CCN(Cc4ccc(OC)cc4)C(=O)C3)n2)cc1`, the “bacterial growth OD600” value (polymyxin B 1 µg/mL) was determined as 0.888.

Consider `CC(C)NCC1(O)CCCN(Cc2cccc(F)c2F)C1=O` (stereo not drawn), for which the “bacterial growth OD600” value (polymyxin B 0.75 µg/mL) was 1.01.

In the case of `CN(Cc1nc(Cc2ccccc2Cl)no1)Cc1cccc2cnccc12`, the “bacterial growth OD600” value (polymyxin B 1 µg/mL) was found to be 0.947.

With `COC(C(=O)N1CCc2c(cnc(C)c2CNC(=O)c2ccccc2SC)C1)c1ccccc1` (stereo not drawn), the “bacterial growth OD600” value (polymyxin B 0.75 µg/mL) came out at 0.815.

Regarding `Cc1oc(-c2ccccc2NC(=O)CC2CCCC2)nc1CNC(=O)c1ccc2ccccc2n1`, the “bacterial growth OD600” value (polymyxin B 0.75 µg/mL) was determined as 0.717.

In the case of `CC(C)(C)C(=O)Nc1ccnn1C1CCN(Cc2ccc(F)cc2Cl)CC1`, where the note is “polymyxin B 0.75 µg/mL”, the “bacterial growth OD600” value was found to be 0.621.
